Values from PubChem BioAssay AID1224830 (NIAID, 2016).

Purpose: 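Regulators of TLR4 signalling towards TNF-alpha in macrophage-like cells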 (primary screen)
Cell system: human THP-1 monocytic leukaemia cells, TNF dual-luciferase reporter clone, PMA-differentiated to macrophage-like cells
Knock-down reagent: siRNA pool against human genes, 50 nM
Time to read-out: LPS for 4 h, given about 3 days after siRNA transfection
Conditions: bacterial LPS (TLR4 ligand), 10 ng/ml
Detection: 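Ratio of firefly to renilla light, scaled to the plate median and expressed as a robust z-score per replicate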
Direction: TNF reporter robust z-score: higher = stronger TNF reporter response to LPS
Hit rule: 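a well is active when its z-score exceeds 2.8 or falls below -1.5; control wells carry no call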
Shown is an unselected part of about 18,000 reagents. Of all reagents, about 2,900 (16%) were called active. 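Calls are made per well; low scores hint the gene aids the LPS response, high scores that it dampens it.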 Unmarked entries are inactive. Repeated entries: four replicate wells of each siRNA pool.

no.	Target gene	TNF reporter robust z-score
1	TMEM100	-0.6
2	TMEM100	0.74
3	TMEM100	-0.51
4	TMEM100	0.64
5	TRIM38	0.23
6	TRIM38	-0.91
7	TRIM38	-0.67
8	TRIM38	0.84
9	COQ7	1.5
10	COQ7	-0.1
11	COQ7	-0.82
12	COQ7	2.36
13	ARSG	0.7
14	ARSG	2.26
15	ARSG	0.83
16	ARSG	1.36
17	CLIP2	0.16
18	CLIP2	0.91
19	CLIP2	-0.11
20	CLIP2	-0.6
21	PLBD2	-0.71
22	PLBD2	0.6
23	PLBD2	0.16
24	PLBD2	0.79
25	IGFL4	0.48
26	IGFL4	-1.52 (active)
27	IGFL4	0.08
28	IGFL4	0.32
29	MEGF10	-0.6
30	MEGF10	-0.34
31	MEGF10	0.29
32	MEGF10	-0.52
33	EEA1	1.78
34	EEA1	-0.41
35	EEA1	2.09
36	EEA1	1.1
37	H2AB2	0.71
38	H2AB2	1.86
39	H2AB2	1.6
40	H2AB2	0.6
41	CX3CR1	-0.7
42	CX3CR1	-0.88
43	CX3CR1	-0.86
44	CX3CR1	-0.32
45	CCDC142	-0.78
46	CCDC142	-0.98
47	CCDC142	-1.75 (active)
48	CCDC142	-1.44

2 entries already listed, ordered by “TNF reporter robust z-score”, ascending.
Target gene	TNF reporter robust z-score
CCDC142	-1.75 (active)
CCDC142	-1.44
